Not every detail of the peptide structures is certain; ends, links or a residue may be inferred. Where a SMILES comes first, the peptide text is derived from it.
Assays:
Streptococcus = assay: Radial diffusion (zone inhibition) assay, Streptococcus; assay type: cell-based, Streptococcus group D; conditions: Table 2; amount per well not given
Aspergillus fumigatus = assay type: cell-based; conditions: YG medium, 96-well plate, 37° C., 24 hours; lowest concentration with no fungal growth
Experimental: (§1) The minimum inhibitory concentration (MIC) was determined by growing fungal strains in YG media until the fungi reached logarithmic phase. The cells were diluted in YG medium then placed in a 96-well plate along with a series of 2-fold dilutions of the peptides. The plate was then incubated at 37° C. for 24 hours. Minimum inhibitory growth was defined as the lowest concentration at which there was no fungal growth.

Staphylococcus = assay: Radial diffusion (zone inhibition) assay, Staphylococcus; assay type: cell-based, Staphylococcus epidermidis; conditions: Table 2; amount per well not given
[1] = system: gram positive and negative bacteria including Pseudomonas, Klebsiella, Staphylococcus, Proteus and Streptococcus; assay: Radial diffusion assay, panel of gram positive and negative bacteria (summary in words); assay type: cell-based; conditions: organisms of Table 2
Escherichia coli [2] = assay: Radial diffusion (zone inhibition) assay with E. coli; assay type: cell-based; conditions: for Zone inhibition, Escherichia coli: Table 2, amount per well not given; for Antibacterial activity on E. coli by radial diffusion (in words): radial diffusion assay; for Inhibitory Activity at 5 μg/well / Inhibitory Activity at 50 μg/well: zone inhibition assay, diameter of inhibitory zone; for Antibacterial activity on E. coli by radial diffusion (in words) / Inhibitory Activity at 5 μg/well / Inhibitory Activity at 50 μg/well: E. coli
Klebsiella = assay: Radial diffusion (zone inhibition) assay, Klebsiella; assay type: cell-based, Klebsiella pneumonieae; conditions: Table 2; amount per well not given
Proteus = assay: Radial diffusion (zone inhibition) assay, Proteus; assay type: cell-based, Proteus mirabilis; conditions: Table 2; amount per well not given
Pseudomonas = assay: Radial diffusion (zone inhibition) assay, Pseudomonas; assay type: cell-based, Pseudomonas aeruginosa; conditions: Table 2; amount per well not given
Escherichia coli [3] = assay type: cell-based; conditions: E. coli, 10 minutes incubation, FIG. 1
Candida albicans = assay type: cell-based; conditions: YG medium, 96-well plate, 37° C., 24 hours; lowest concentration with no fungal growth
Experimental: as §1

Row | SMILES | Zone inhibition, Streptococcus (Streptococcus) | MINIMUM INHIBITORY CONCENTRATION Aspergillus fumigatus (Aspergillus fumigatus) | Zone inhibition, Staphylococcus (Staphylococcus) | Antimicrobial activity on gram positive and negative bacteria (in words) [1] | Zone inhibition, Escherichia coli (Escherichia coli [2]) | Antibacterial activity on E. coli by radial diffusion (in words) (Escherichia coli [2]) | Inhibitory Activity at 5 μg/well (Escherichia coli [2]) | Inhibitory Activity at 50 μg/well (Escherichia coli [2]) | Zone inhibition, Klebsiella (Klebsiella) | Zone inhibition, Proteus (Proteus) | Zone inhibition, Pseudomonas (Pseudomonas) | bactericidal activity (in words) (Escherichia coli [3]) | MINIMUM INHIBITORY CONCENTRATION Candida albicans (Candida albicans)
1 | CC(C)C[C@H](NC(=O)[C@H](Cc1ccccc1)NC(=O)[C@@H]1CCCN1C(=O)[C@H](Cc1c[nH]c2ccccc12)NC(=O)[C@H](Cc1c[nH]c2ccccc12)NC(=O)[C@H](Cc1c[nH]c2ccccc12)NC(=O)[C@@H]1CCCN1C(=O)[C@H](Cc1ccccc1)NC(=O)[C@@H](N)CCCNC(=N)N)C(=O)N[C@@H](CCCNC(=N)N)C(=O)O [Peptide 3, RFPWWWPFLR] (H-RFPWWWPFLR-OH) | 1 | 500 µg/mL | 0 | low, but detectable, activity | 2 | detectable but significantly less activity than that of Peptide 1 | 2 | 5 | 2 | 0 | 1 | minimum activity | 
2 | CC(C)C[C@H](NC(=O)[C@H](Cc1ccccc1)NC(=O)[C@@H]1CCCN1C(=O)[C@H](Cc1c[nH]c2ccccc12)NC(=O)[C@H](Cc1c[nH]c2ccccc12)NC(=O)[C@H](Cc1c[nH]c2ccccc12)NC(=O)[C@@H]1CCCN1C(=O)[C@H](Cc1ccccc1)NC(=O)[C@H](CCCNC(=N)N)NC(=O)[C@H](CCCNC(=N)N)NC(=O)[C@@H](N)C(C)C)C(=O)N[C@@H](CCCNC(=N)N)C(=O)N[C@@H](CCCNC(=N)N)C(=O)O [Peptide 1, VRRFPWWWPFLRR] | 4 | 250 µg/mL | 5 | broad range of antimicrobial activity on all organisms tested except Proteus mirabilis | 5 | strong antibacterial effects | 6 | 10 | 7 | 1 | 3 | strong bactericidal activity | 1000 µg/mL
3 | N[C@@H](Cc1ccccc1)C(=O)N1CCC[C@H]1C(=O)N[C@@H](Cc1c[nH]c2ccccc12)C(=O)N[C@@H](Cc1c[nH]c2ccccc12)C(=O)N[C@@H](Cc1c[nH]c2ccccc12)C(=O)N1CCC[C@H]1C(=O)N[C@@H](Cc1ccccc1)C(=O)O [Peptide 4, FPWWWPF] (H-FPWWWPF-OH) | 0 | 500 µg/mL | 0 | no activity on any organisms | 0 | no detectable activity | 0 | 0 | 0 | 0 | 0 | minimum activity | 
4 | CC(C)C[C@H](NC(=O)[C@H](Cc1ccccc1)NC(=O)[C@@H]1CCCN1C(=O)[C@H](Cc1c[nH]c2ccccc12)NC(=O)[C@H](Cc1c[nH]c2ccccc12)NC(=O)[C@H](Cc1c[nH]c2ccccc12)NC(=O)[C@@H]1CCCN1C(=O)[C@H](Cc1ccccc1)NC(=O)[C@H](CCCNC(=N)N)NC(=O)[C@H](CCCNC(=N)N)NC(=O)[C@@H](N)CCCNC(=N)N)C(=O)N[C@@H](CCCNC(=N)N)C(=O)N[C@@H](CCCNC(=N)N)C(=O)N[C@@H](CCCNC(=N)N)C(=O)O [Peptide 2, RRRFPWWWPFLRRR] (H-RRRFPWWWPFLRRR-OH) | 5 |  | 7 | slightly higher activity on those same bacteria | 5 | slightly higher activity than Peptide 1 | 7 | 11 | 7 | 2 | 4 |  | 

Reference: patent US5994308A, “Broad spectrum antimicrobial peptides containing a tryptophan triplet and methods of use” (Board of Trustees of Southern Illinois University, priority 1997, dated 1999)
